Source: PubChem BioAssay AID1671190 (National Center for Advancing Translational Sciences (NCATS), 2021)
Where “and” joins values, the source holds several entries; their conditions need not be identical. Equal entries are not always repeated. Out of some 580,000 compounds screened, about 6,100 (1.1%) were called active. Inconclusive results, whose numbers are uncertain, are shown with a selection of clear calls. The call rests on the fitted dose curve; in most records, active means well fitted inhibition curve with a large enough effect; inconclusive means small, poorly fitted or top-dose-only effect, or another doubt; inactive means no such curve, though single readings can be large or run the other way. Where the call is inconclusive, the potency comes from a doubtful curve fit.

Sequences of proteins named here, by UniProt entry; tags and fusion partners are left off. A change or cut given only in a name is not applied to a line headed by its entry.
UniProt P18054: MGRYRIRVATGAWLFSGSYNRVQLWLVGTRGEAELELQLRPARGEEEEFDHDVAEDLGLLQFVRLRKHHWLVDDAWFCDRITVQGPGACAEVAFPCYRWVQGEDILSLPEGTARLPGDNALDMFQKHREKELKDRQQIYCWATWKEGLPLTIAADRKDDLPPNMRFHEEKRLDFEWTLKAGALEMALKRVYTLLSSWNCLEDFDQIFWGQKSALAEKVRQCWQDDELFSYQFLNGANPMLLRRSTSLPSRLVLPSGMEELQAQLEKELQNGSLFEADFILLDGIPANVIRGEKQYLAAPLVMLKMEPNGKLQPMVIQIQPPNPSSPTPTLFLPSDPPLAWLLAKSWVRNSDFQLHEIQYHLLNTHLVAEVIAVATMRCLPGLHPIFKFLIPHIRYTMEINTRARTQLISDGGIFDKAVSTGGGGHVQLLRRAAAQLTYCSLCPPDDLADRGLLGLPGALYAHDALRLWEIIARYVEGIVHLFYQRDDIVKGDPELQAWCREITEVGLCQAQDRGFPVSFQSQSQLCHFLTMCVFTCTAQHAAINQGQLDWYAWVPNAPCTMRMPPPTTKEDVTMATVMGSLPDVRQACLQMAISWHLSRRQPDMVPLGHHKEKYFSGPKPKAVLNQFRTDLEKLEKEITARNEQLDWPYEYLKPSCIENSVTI

The compounds below were run against Polyunsaturated fatty acid lipoxygenase ALOX12 (Homo sapiens) (UniProt P18054) (assay: Primary qHTS assay for inhibitors of human arachidonate 12S-lipoxygenase (ALOX12): Round 2). Conditions: purified 12hLO, xylenol orange hydroperoxide absorbance; series mostly up to 108 µM.
In short: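 Hydroperoxide product was detected by ferrous iron/xylenol orange as the 573 to 405 nm absorbance ratio. Arachidonic acid at 40 uM (final) was turned over for 30 min at room temperature by 150 nM human 12hLO, pH 7.0 Hepes buffer, after 15 min compound preincubation.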
Potency means the concentration at half of the fitted maximal effect.

| SMILES | Potency |
| --- | --- |
| CC(C)Cn1c(-c2ccc(S(=O)(=O)N3CCCC3)cc2)csc1=Nc1ccccc1 | inconclusive: 39.8 µM [inhibitor, partial curve, poor fit] |
| CN(CC1(C)CCOCC1)C(=O)c1nccc2ccccc12 | inconclusive: 3.16 µM [inhibitor, full curve, poor fit] |
| CSCc1ccc(C(=O)Nc2ccc(C(F)(F)F)cc2)cc1 | inactive |
| COc1ccc2nc(-c3ccc4c(c3)OCO4)cc(C(=O)O)c2c1 | inconclusive: 39.8 µM [inhibitor, partial curve, poor fit] |
| COc1ccc(/C=C2\Oc3ccccc3C2=O)cc1 | inconclusive: 50.1 µM [inhibitor, partial curve, poor fit] |
| COC(=O)[C@@]12C[C@@H](CC(=O)NCc3cccc4ccccc34)C(=O)N(Cc3ccccc3)C1=CCC(C)(C)C2 | inactive |
| O=C(O)COc1ccc2c(c1)O/C(=C\c1cccs1)C2=O | inconclusive: 15.8 µM [inhibitor, partial curve, poor fit] |
| COc1ccc(S(=O)(=O)NCCS(=O)(=O)N2CCN(c3ccccc3F)CC2)cc1 | inconclusive: 112 µM [inhibitor, partial curve, poor fit] |
| O=C(Cc1ccsc1-c1ccccc1)NO | active: 15.8 µM |
| CC(C)c1ccc(OCC(=O)NNC(=S)NC(=O)c2ccco2)c(Br)c1 | inconclusive: 15.8 µM [inhibitor, partial curve, poor fit] |
| Cc1ccc(S(=O)(=O)N2CCCCC2)cc1NC(=S)NC(=O)c1ccco1 | inconclusive: 44.7 µM [inhibitor, partial curve, poor fit] |
| CN(CC(=O)Nc1ccc(F)c(F)c1F)c1ncnc2sccc12 | inconclusive: 0.251 µM [inhibitor, full curve, poor fit] |
| NC(=O)C(Cc1ccccc1)NS(=O)(=O)c1ccc(Cl)s1 (stereo not given) | inactive |
| O=C(COC(=O)c1ccc[n+]([O-])c1)Nc1ccc(Cl)cc1[N+](=O)[O-] | inconclusive: 79.4 µM [inhibitor, single point] |
| c1csc(-c2nc3ccccn3c2Nc2ccc3c(c2)OCCO3)c1 | inconclusive: 10 µM [inhibitor, full curve, poor fit] |
| CN(CC#N)C(=O)[C@H]1CN(Cc2ccccc2)C[C@H]1C(=O)O | inconclusive: 31.6 µM [inhibitor, single point] |
| Cc1ccc(S(=O)(=O)Nc2cccc(C(=O)NCc3ccc(S(N)(=O)=O)cc3)c2)cc1 | inconclusive: 112 µM [inhibitor, single point] |
| CC(c1cccs1)N(C)C(=O)Cc1c[nH]c2ccccc12 (stereo not given) | inactive |
| COc1cc(-c2nc3cccc(C)n3c2Nc2ccc3c(c2)OCCO3)ccc1O | inconclusive: 50.1 µM [inhibitor, partial curve, poor fit] |
| Cc1cccc(NC(=O)CSCn2nnc3c(=O)[nH]c(Cc4ccc(F)cc4)nc32)c1C | inconclusive: 50.1 µM [inhibitor, partial curve, poor fit] |
| COc1ccccc1CNC(=O)c1cccc(NC(=O)N2CCSc3ncccc32)c1 | inconclusive: 44.7 µM [inhibitor, full curve, poor fit] |
| O=C(c1ccc(Cl)cc1)[C@@H]1[C@H]2C(=O)[C@@H]3OC[C@@H](O3)[C@@H]12 | inactive |

Reformatted bar-delimited: part of the list above
SMILES | Potency
CC(C)Cn1c(-c2ccc(S(=O)(=O)N3CCCC3)cc2)csc1=Nc1ccccc1 | inconclusive: 39.8 µM [inhibitor, partial curve, poor fit]
CN(CC1(C)CCOCC1)C(=O)c1nccc2ccccc12 | inconclusive: 3.16 µM [inhibitor, full curve, poor fit]
CC(C)c1ccc(OCC(=O)NNC(=S)NC(=O)c2ccco2)c(Br)c1 | inconclusive: 15.8 µM [inhibitor, partial curve, poor fit]
CN(CC(=O)Nc1ccc(F)c(F)c1F)c1ncnc2sccc12 | inconclusive: 0.251 µM [inhibitor, full curve, poor fit]
Cc1cccc(NC(=O)CSCn2nnc3c(=O)[nH]c(Cc4ccc(F)cc4)nc32)c1C | inconclusive: 50.1 µM [inhibitor, partial curve, poor fit]

(more compounds)

| SMILES | Potency |
| --- | --- |
| CC(C)[N+]1=C2C=CC=CC=C2SC12C([N+](=O)[O-])=CC(=[N+]([O-])[O-])C=C2[N+](=O)[O-] (stereo not given) | inconclusive: 11.2 µM [inhibitor, partial curve, poor fit] |
| CCCCOC(=O)c1ccc(NC(=O)CSc2nc3c(c(=O)[nH]2)CCC3)cc1 | inconclusive: 141 µM [inhibitor, partial curve, poor fit] |
| O=C(Nc1cccc(F)c1)c1cccnc1NCCc1ccccc1 | inconclusive: 50.1 µM [inhibitor, partial curve, poor fit] |
| Cc1nnc(N2C(=O)c3oc4ccccc4c(=O)c3C2c2ccc(F)cc2)s1 (stereo not given) | inconclusive: 17.8 µM [inhibitor, full curve] |
| CCc1c(C)nc2[nH]nc(NC(=O)C(F)(F)F)n2c1=O | inactive |
| C#Cc1cccc(NC(=O)c2ccc3c(c2)C(=O)N(Cc2cccnc2)C3=O)c1 | inactive |
| COc1ccc(OC)c(NC(=O)c2ccc3c(c2)CCN3S(C)(=O)=O)c1 | inconclusive: 1.26 µM [inhibitor, full curve, poor fit] |
| C=CCNC(=O)c1ccc(C(=O)NC(Cc2ccccc2)C(=O)O)cc1C(=O)O (stereo not given) | inactive |
| Cc1noc(C)c1-c1nc(NC2CC2)c2ccccc2n1 | inconclusive: 4.47 µM [inhibitor, full curve, poor fit] |
| CC(C(=O)Nc1ccc(F)c(F)c1)N1CCC(C(=O)NCc2ccccc2)CC1 (stereo not given) | inconclusive: 3.55 µM [inhibitor, full curve, poor fit] |
| Oc1c(C(c2ccc(Cl)cc2)N2CCCC2)sc2nc(-c3ccco3)nn12 (stereo not given) | inconclusive: 44.7 µM [inhibitor, partial curve, poor fit] |
| COc1ccc([N+](=O)[O-])cc1NC(=O)c1ccccc1SC | inactive |
| Cc1ccc2nc(N3CCN(C(=O)c4ccco4)CC3)c3nncn3c2c1 | inactive |
| CCc1ccc(CN(C)C(=O)c2cc(COc3c(F)cccc3F)on2)cc1 | inactive |
| O=c1c2sccc2nc(SCc2nc(-c3cccc(C(F)(F)F)c3)no2)n1C1CC1 | inconclusive: 141 µM [inhibitor, partial curve, poor fit] |
| Clc1cccc(Nc2nc(NC3CCCCCC3)nc3c2cnn3-c2ccccc2)c1 | inconclusive: 89.1 µM [inhibitor, single point] |
| CCOc1ccc(CN(C)C(C)C(=O)Nc2ccc([N+](=O)[O-])cc2Cl)cc1OC (stereo not given) | inactive |
| COc1cccc(C(=O)NC[C@@H]2CC[C@H]3C[C@@H]2C3(C)C)c1 | inactive |
| Cc1ccc(-n2nc3ccc(NC(=O)/C=C/c4ccco4)cc3n2)cc1 | inconclusive: 35.5 µM [inhibitor, partial curve, poor fit] |
| O=C(NC1CCCCC1)N1Cc2[nH]cnc2C[C@H]1c1nc(-c2ccc3c(c2)OCO3)no1 | inconclusive: 20 µM [inhibitor, full curve, poor fit] |
| CCC1Oc2ccc(NC(=O)c3ccc4c(c3)OCO4)cc2CN(Cc2ccccc2)C1=O (stereo not given) | inconclusive: 15.8 µM [inhibitor, full curve] |
| O=C1[C@H]2[C@@H](c3ccc(Cl)cc3)N3C(=O)N(c4cccc(Cl)c4)C(=O)[C@@]3(Cc3ccc(Cl)cc3)[C@H]2C(=O)N1C1CCCCC1 | inactive |

| SMILES | Potency |
| --- | --- |
| O=C(CS(=O)(=O)c1ccccc1)Nc1nnc(-c2cccs2)o1 | inactive |
| CC(=O)c1sc(NC(=O)C(C)Oc2ccc3c(C)cc(=O)oc3c2)nc1C (stereo not given) | inconclusive: 25.1 µM [inhibitor, partial curve, poor fit] |
| Cc1ccc(C(=O)N2CCC[C@H]2c2nc(-c3ccccc3)no2)cc1 | inconclusive: 28.2 µM [inhibitor, partial curve, poor fit] |
| CCNc1ncc2nc(-c3ccc(Cl)cc3)c(=O)n(Cc3cccc(OC)c3)c2n1 | inconclusive: 56.2 µM [inhibitor, single point] |
| CC(C)NC(=O)CN1CCN(c2ncccn2)CC1 | inconclusive: 0.316 µM [inhibitor, full curve, poor fit] |
| O=C(NC(c1ccccc1)c1ccccc1)c1cnc2c(c1)N([S+](=O)([O-])c1cccnc1)CCC2 | inactive |
| c1ncc(-c2ccoc2)c(NC2CC2)n1 | inconclusive: 3.98 µM [inhibitor, full curve, poor fit] |
| CCc1c(C)sc2nc(N(CC)CCO)n3nc(-c4ccccc4)nc3c12 | inactive |
| COCCCCC(=NOCCN)c1ccc(C(F)(F)F)cc1 | inconclusive: 13.7 µM [inhibitor, single point] and inconclusive: 31.6 µM [inhibitor, partial curve, poor fit] |
| Cc1c(C#N)c(N)nc2c3c(sc12)NC(=O)CC3c1ccccc1F (stereo not given) | inconclusive: 100 µM [inhibitor, partial curve, poor fit] |
| O=C(/C=C/c1cc(Br)cc(Br)c1O)c1ccccc1 | inconclusive: 44.7 µM [inhibitor, partial curve, poor fit] |
| C=CCOc1ccc(CNn2nnnc2N)cc1 | inactive |
| Cc1ccc2c(CSc3nnnn3-c3ccccc3)cc(=O)oc2c1C | inconclusive: 50.1 µM [inhibitor, partial curve, poor fit] |
| Cc1ccc(-c2ccc3nnc(CNC(=O)c4ccccc4)n3n2)cc1C | inactive |
| CN(C)CC1(COc2ccc(S(C)(=O)=O)cc2)C[C@@H](O)[C@@H](O)C1 (stereo not given in full) | inconclusive: 10 µM [inhibitor, full curve] |
| COc1cc(/C=C/C(=O)O)cc(S(=O)(=O)NCCCO)c1OC | inactive |
| CCN1CCN(CCCNC(=O)c2cnn(-c3ccc(C)cc3)c2C2CCN(C(=O)OC(C)(C)C)CC2)CC1 | inactive |
| N#Cc1nnn2c1nc(N)c1c(F)cccc12 | inconclusive: 28.2 µM [inhibitor, single point] |
| O=c1c2c(-c3ccc([N+](=O)[O-])cc3)csc2nc2n1CCC2 | inconclusive: 39.8 µM [inhibitor, partial curve, poor fit] |
| COc1ccccc1C(=O)NNC(=O)C(=O)Nc1ccc(C)cc1 | inactive |
| CCOc1cc(-c2ccc(OC(=O)c3ccccc3)c(OC)c2)cc(=O)c2c(C)oc(C)c12 | inconclusive: 50.1 µM [inhibitor, partial curve, poor fit] |
